Reference: article PMC10108353 (Journal of Medicinal Chemistry, 2023)

Assay: general procedure: Fmoc solid-phase peptide synthesis; Wang resin (0.3 g, 1.1 mmol/g loading capacity); DCC/HOBt; HBTU/HOBt/DIPEA for cyclisation
Details: for crude HPLC purity / crude yield: whole synthesis; for crude HPLC purity / final HPLC purity: analytical RP HPLC on C18; for crude yield: on resin loading; for final HPLC purity: late stage modification step

Substance | crude HPLC purity [%] | crude yield [%] | final HPLC purity [%]
H-(R)-Phu-Leu-Ala-Val-(S)-Asp-OBn | 79 | 40 | 
H-(R)-Phu-Leu-Asp(OBn)-Phg-(S)-Asp-OBn | 74 | 37 | 
H-(R)-Phu-Leu-Asp(OBn)-Val-(R)-Asp-OBn | 85 | 44 | 
H-(R)-Phu-Leu-Asp(OBn)-Val-(R)-β3homoAla-OH | 78 | 47 | 
H-(R)-Phu-Leu-Asp(OBn)-Val-(S)-Asp-OBn | 79 | 34 | 
H-(S)-Phu-Leu-Ala-Val-(S)-Asp-OBn | 83 | 46 | 
H-(S)-Phu-Leu-Asp(OBn)-Val-(R)-Asp-OBn | 81 | 24 | 
H-(S)-Phu-Leu-Asp(OBn)-Val-(R)-β3homoAla-OH | 75 | 27 | 
H-(S)-Phu-Leu-Asp(OBn)-Val-(S)-Asp-OBn | 80 | 22 | 
H-(S)-Phu-Leu-Asp(OBn)-Val-(S)-Asp-nPr | 82 | 45 | 
H-(S)-Phu-Phe-Ala-Val-(S)-Asp-OBn | 85 | 36 | 
H-(S)-Phu-Phe-Asp(OBn)-Val-(S)-Asp-OBn | 73 | 48 | 
c[(R)-Phu-LAV-(S)-isoAsp] |  |  | 97
c[(R)-Phu-LD-Phg-(S)-isoAsp] |  |  | 96
c[(R)-Phu-LDV-(R)-isoAsp] |  |  | 99
c[(R)-Phu-LDV-(R)-β^3Ala] |  |  | 98
c[(R)-Phu-LDV-(S)-isoAsp] |  |  | 97
c[(S)-Phu-FAV-(S)-isoAsp] |  |  | 98
c[(S)-Phu-FDV-(S)-isoAsp] |  |  | 97
c[(S)-Phu-LAV-(S)-isoAsp] |  |  | 95
c[(S)-Phu-LDV-(R)-isoAsp] |  |  | 97
c[(S)-Phu-LDV-(R)-β^3Ala] |  |  | 97
c[(S)-Phu-LDV-(S)-isoAsp(NHPr)] |  |  | 98
c[(S)-Phu-LDV-(S)-isoAsp] |  |  | 98
